The subject of this assay is P388 leukemia ip, CD2F1 mice, survival T/C. The assay can be described thus: NCI In Vivo Anticancer Drug Screen. Data for tumor model P388 Leukemia (intraperitoneal) in CD2F1 (CDF1) mice. Conditions: T/C endpoint: median survival time, higher T/C = longer survival.
Setting [1] is: dose: 50.0 mg/kg/injection, schedule: Q01DX009 (ip), vehicle: saline with Tween-80.
Where [2] appears, read: dose: 100.0 mg/kg/injection, schedule: Q01DX009 (ip), vehicle: saline with Tween-80.
[3] abbreviates: dose: 200.0 mg/kg/injection, schedule: Q01DX009 (ip), vehicle: saline with Tween-80.
Setting [4] is: dose: 50.0 mg/kg/injection, schedule: Q01DX009 (ip), vehicle: other.
The mark [5] stands for this setting: dose: 100.0 mg/kg/injection, schedule: Q01DX009 (ip), vehicle: other.
The mark [6] stands for this setting: dose: 200.0 mg/kg/injection, schedule: Q01DX009 (ip), vehicle: other.
[7] abbreviates: dose: 100.0 mg/kg/injection, schedule: Q01DX009 (ip), vehicle: saline.
Setting [8] is: dose: 200.0 mg/kg/injection, schedule: Q01DX005 (ip), vehicle: Klucel (hydroxypropylcellulose) (HPC).
Setting [9] is: dose: 200.0 mg/kg/injection, schedule: Q01DX005 (ip), vehicle: saline.

Structures are written as SMILES. The list does not hold the whole screen: it is rich in T/C values a quarter to a half above the control, in often repeated tests (any T/C) and in doses without a T/C. Other doses and runs of a compound stand elsewhere. T/C is the treated group as % of the vehicle group. Some doses have a count of surviving animals in place of a T/C: the source holds a T/C of zero for them, seemingly a mark for toxic or unscored doses. Some doses without a T/C left all or most animals alive at the check, yet need not have been tolerated: the source hardly ever lists a survival T/C far under the control, and the zero likely stands for such cases as well. Survivors were counted at the toxicity check, usually on the fifth day, unless a day is given; later deaths do not show. Schedule codes are those of the source, read here as Q, the interval in days (D) or hours (H), X, the number of doses. Some entries hold several experiments; the results are listed from low to high. Some structures stand for samples that the source files as different forms (salt, stereo form or complex); doses refer to the form tested. For survival time, the PubChem record calls one and a half times the control and up active, and a quarter to a half above the control has no call in these data; cut-offs in other NCI protocols can differ. Brackets with × give the number of equal values in this list. Some T/C values carry the count of animals alive at the toxicity check (mostly the fifth day); without a count, all were alive then.

As to `COc1ccc(CC2C(=O)NC(C)C(=O)N(C)C3Cc4ccc(cc4)Oc4cc(ccc4O)CC(C(=O)NC(C)C(=O)NC(C)C(=O)N2C)N(C)C3=O)cc1` (centres undefined), the T/C (dose: 0.25 mg/kg/injection, schedule: Q01DX009 (ip), vehicle: saline with Tween-80) is 141 and 142 % of control [5 of 6 alive]; the T/C (dose: 0.75 mg/kg/injection, schedule: Q04DX003 (ip), vehicle: other) is 140 % of control; the T/C (dose: 1.0 mg/kg/injection, schedule: Q01DX009 (ip), vehicle: saline with Tween-80) is 148 % of control; the T/C (dose: 2.25 mg/kg/injection, schedule: Q01DX001 (ip), vehicle: other) is 134 % of control; the T/C (dose: 4.5 mg/kg/injection, schedule: Q01DX001 (ip), vehicle: other) was 135 % of control; the T/C (dose: 8.0 mg/kg/injection, schedule: Q01DX009 (ip), vehicle: saline with Tween-80) was 146 % of control. Further, the T/C is 147 % of control (dose: 9.0 mg/kg/injection, schedule: Q01DX001 (ip), vehicle: other) and 125 % of control (dose: 18.0 mg/kg/injection, schedule: Q01DX001 (iv), vehicle: other). For the same compound, the survivor count is 4 of 10 (dose: 1.5 mg/kg/injection, schedule: Q03HX024 (ip), vehicle: other); 0 of 10 (dose: 2.25 mg/kg/injection, schedule: Q03HX008 (ip), vehicle: other); 0 of 10 (dose: 3.0 mg/kg/injection, schedule: Q03HX024 (ip), vehicle: other); 0 of 10 (dose: 4.5 mg/kg/injection, schedule: Q03HX008 (ip), vehicle: other); 0 of 10 (dose: 6.0 mg/kg/injection, schedule: Q03HX024 (ip), vehicle: other); 0 of 10 (dose: 9.0 mg/kg/injection, schedule: Q03HX008 (ip), vehicle: other). Further, the survivor count runs as follows: (dose: 14.4 mg/kg/injection, schedule: Q01DX005 (ip), vehicle: other) 2 of 10; (dose: 14.4 mg/kg/injection, schedule: Q01DX005 (iv), vehicle: other) 1 of 10; (dose: 16.0 mg/kg/injection, schedule: Q01DX009 (ip), vehicle: other) 0 of 10; (dose: 18.0 mg/kg/injection, schedule: Q01DX001 (ip), vehicle: other) 6 of 10; (dose: 18.0 mg/kg/injection, schedule: Q03HX008 (ip), vehicle: other) 0 of 10; (dose: 24.0 mg/kg/injection, schedule: Q04DX003 (ip), vehicle: other) 3 of 10. Moreover, the survivor count runs as follows: (dose: 28.8 mg/kg/injection, schedule: Q01DX005 (ip), vehicle: other) 0 of 10; (dose: 36.0 mg/kg/injection, schedule: Q01DX001 (ip), vehicle: other) 1 of 10; (dose: 36.0 mg/kg/injection, schedule: Q01DX001 (iv), vehicle: other) 1 of 10; (dose: 48.0 mg/kg/injection, schedule: Q04DX003 (ip), vehicle: other) 0 of 10; (dose: 64.0 mg/kg/injection, schedule: Q01DX009 (oral), vehicle: other) 3 of 10; (dose: 72.0 mg/kg/injection, schedule: Q01DX001 (ip), vehicle: other) 0 of 10.
Take `COc1cc2oc(=O)ccc2cc1[C@@H]1OC(=O)C2(C)O[C@@H]12` (some centres undefined): under “dose: 10.0 mg/kg/injection, schedule: Q01DX009 (ip), vehicle: saline”, the T/C was 149 % of control.
Turning to `NCC[Se][Se]CCN`, the survivor count is, setting by setting: (dose: 12.5 mg/kg/injection, schedule: Q01DX009 (ip), vehicle: saline with Tween-80) 3 of 6; (dose: 12.5 mg/kg/injection, schedule: Q01DX009 (ip), vehicle: saline) 1 of 6; (dose: 25.0 mg/kg/injection, schedule: Q01DX009 (ip), vehicle: saline with Tween-80) 0 of 6; under setting [1], 0 of 6; under setting [2], 0 of 6; under setting [3], 0 of 6.
Regarding `COc1ccc(CC#N)c(OC)c1`, the survivor count runs as follows: under setting [4], 2 of 5; under setting [5], 0 of 5; under setting [6], 0 of 5.
Consider `O=C1N[C@@H]2C(=C[C@H](O)[C@@H](O)[C@H]2O)c2cc3c(c(O)c21)OCO3`, for which the T/C (dose: 1.25 mg/kg/injection, schedule: Q01DX009 (ip), vehicle: saline with Tween-80) is 129 % of control. Where the note is “dose: 5.0 mg/kg/injection, schedule: Q01DX009 (ip), vehicle: saline with Tween-80”, the survivor count was 3 of 6.
Consider `Clc1cccc(Cl)c1NC1=NCCS1`, for which the survivor count (dose: 200.0 mg/kg/injection, schedule: Q01DX009 (ip), vehicle: Klucel (hydroxypropylcellulose) (HPC)) is given as 0 of 6.
Consider `OC(Cc1cccnc1)(c1ccccc1)c1cccc2ccccc12` (centres undefined), for which the survivor count (dose: 400.0 mg/kg/injection, schedule: Q04DX003 (ip), vehicle: saline with Tween-80) was 5 of 6.
As for `Cc1cc(C)c(S(=O)(=O)N/N=C/C(=O)O)c(C)c1`, the T/C is 126 % of control (dose: 25.0 mg/kg/injection, schedule: Q01DX009 (ip), vehicle: other) and 137 % of control (2×) under setting [4]. In addition, the survivor count is, setting by setting: under setting [5], 6 of 6; under setting [6], 3 of 6 and 5 of 6; (dose: 400.0 mg/kg/injection, schedule: Q01DX009 (ip), vehicle: other) 1 of 6.
Turning to `O=C(O)c1cc2cc([N+](=O)[O-])ccc2[se]1`, the survivor count under setting [7] is given as 6 of 6.
Take `O=C1CC(c2ccccc2)NCCCCN2C(=O)C=Cc3ccccc3C2CCN1` (centres undefined): the survivor count is, setting by setting: (dose: 25.0 mg/kg/injection, schedule: Q01DX009 (ip), vehicle: Klucel (hydroxypropylcellulose) (HPC)) 6 of 6; (dose: 50.0 mg/kg/injection, schedule: Q01DX009 (ip), vehicle: Klucel (hydroxypropylcellulose) (HPC)) 6 of 6.
With `CC1C2CCC3C4CC=C5CC(N(C)C)CCC5(C)C4CCC32CN1C` (centres undefined), the survivor count is 3 of 5 (dose: 100.0 mg/kg/injection, schedule: Q01DX005 (ip), vehicle: Klucel (hydroxypropylcellulose) (HPC)); 0 of 5 (dose: 100.0 mg/kg/injection, schedule: Q01DX005 (ip), vehicle: saline); 0 of 6 under setting [7]; 0 of 5 under setting [8]; 0 of 5 under setting [9].
As to `O=[N+]([O-])c1c(N2CCN(CCO)CC2)ccc2nonc12`, the survivor count (dose: 200.0 mg/kg/injection, schedule: Q01DX009 (ip), vehicle: suspension in saline) is 5 of 6.
`NN/C(N)=N/S(=O)(=O)c1ccccc1`: the survivor count under setting [8] is 5 of 5.
As to `CCOC(=O)C(C(=O)OCC)=C(C)C`, the T/C (dose: 266.0 mg/kg/injection, schedule: Q01DX009 (ip), vehicle: saline with Tween-80) was 125 % of control and the T/C (dose: 600.0 mg/kg/injection, schedule: Q01DX009 (ip), vehicle: saline with Tween-80) is 125 % of control.
In the case of `O=[N+]([O-])c1ccc(N/N=C\c2c(Cl)n(-c3ccccc3)c3ccccc23)cc1`, the survivor count (dose: 100.0 mg/kg/injection, schedule: Q01DX001 (ip), vehicle: saline) is 6 of 6 and the survivor count (dose: 200.0 mg/kg/injection, schedule: Q01DX001 (ip), vehicle: saline) was 6 of 6.
In the case of `CC(CN=Cc1ccccc1O)N=Cc1ccccc1O.[Zn]` (centres undefined), the survivor count under setting [1] is 2 of 6 and 4 of 6; the survivor count under setting [2] is on record as 0 of 6; the survivor count under setting [3] is listed as 0 of 6.
Turning to `COc1cc(C2=NCCc3cc4c(cc32)OCO4)cc(OC)c1OC`, under setting [9], the T/C was 135 % of control [5 of 6 alive]. For the same compound, the survivor count (dose: 400.0 mg/kg/injection, schedule: Q01DX005 (ip), vehicle: saline) was 0 of 6.

Values taken from PubChem BioAssay AID330 (DTP/NCI, 2004).
